Measured values: US6100377A, “Constrained peptides” (The Trustees of the University of Pennsylvania, priority 1994, dated 2000)
Not every detail of the peptide structures is certain; ends, links or a residue may be inferred. Bridge positions count the residues as written; N and C are the ends. Peptide text beside a SMILES is read from it.

Tests used:
[1] = system: responder CD4+ T cells + allogeneic cells; experiment: Blocking of the mixed lymphocyte response; type: cell-based, human; conditions: compounds at 10 μg/ml final; control 85,000
Procedure: Responder purified CD4+ T cells were used in a mixed lymphocyte response against completely allogeneic human cells. The compounds were added at 10 μg/ml final concentration. The number of responder cells was 10^5 and the number of stimulators 4×10^5 cells per well.

R1.1 cells = experiment: Inhibition of proliferation of R1.1 thymoma cells; type: cell-based, mouse; conditions: for % inhibition of proliferation: Table VII; for (cpm): control 25,000
[2] = system: ConA-stimulated splenocytes; type: cell-based, BALB/c mouse; conditions: compared with MAb 87.92.6 treatment
[3] = system: ABA delayed type hypersensitivity; experiment: In vivo inflammation: delayed type hypersensitivity to azobenzenearsonate (ABA); set-up: species or system mouse; conditions: for swelling (10^-2): HBSS control 28; for % inhibition: in vivo inflammation, swelling
Procedure: The effects of macrocyclics on in vivo inflammation were examined as follows. The effects of cyclic compounds disclosed in Table I on in vivo inflammatory response to Azobenzenearsonate was performed using treated groups of ABA primed normal Balb/c or Va3.1 transgenic mice with either 1) intravenously administered anti-CD4 monoclonal antibodies, 2) intravenously administered anti-class II antibodies, 3) systemically administered soluble forms of the most efficacious constrained macrocyclics 4) intravenously administered ABA coupled mononuclear cells, and 5) control antibodies and control macrocyclics.
[…] The animals are assayed in vivo for DTH responses to ABA and their splenocytes restimulated in vitro for proliferative reactions. Studies of a macrocyclic compound modeled to bind to the reovirus receptor (CDR2R) on activated T cells have shown it to be efficacious at 100 μg total dose in reducing in vivo delayed type hypersensitivity to ABA.
Coupling of erythrocyte depleted splenocytes to ABA is performed as previously described by Perry, et al., (1982) J. Exp. Med., 156:480-491; Carroll, et al., (1987) Immunology, 62:471-475; and Lowy, et al., (1984) Nature, 308:373-374. Briefly, a 40 mM solution of benzenearsonate diazonium is prepared from para-arsanilic acid (Eastman Kodak Co., Rochester, N.Y.) and reacted with erythrocyte depleted splenocytes at room temperature for 5 minutes. Coupling is stopped by addition of cold phosphate buffered saline, followed by several washes in Eagle's minimal essential medium (MEM). Coupling of erythrocyte depleted splenocytes to 2,4,6 trinitrobenzenesulfonic acid (TNBS) is performed by standard techniques.
The delayed type hypersensitivity assay is performed as follows. Five days after priming a mouse with hapten coupled cells, the hind left footpad is measured using an engineer's caliper (Fowler). Mice are challenged with 20 ml of active ABA diazonium salt solution injected into the footpad. Twenty four hours later, the degree of swelling is measured in the footpad. Perry, et al., (1982) J. Exp. Med., 156:480-491; Carroll, et al., (1987) Immunology, 62:471-475; and Lowy, et al., (1984) Nature, 308:373-374, disclose unimmunized mice are injected with ABA diazonium as a control for the effects of challenge.
For priming, mice (normal or transgenic with a T-cell receptor that recognizes ABA) are injected subcutaneously in each flank using a 23 g needle with 0.1 ml of ABA- or TNP-coupled spleen cells (3×10^7).Five days later, ear thickness and footpad thickness is measured with a caliper. […] Twenty four hours after challenge, the ears and footpads are measured and the animals sacrificed by cervical dislocation. […]

SMILES	(cpm) [1]	% inhibition of proliferation (R1.1 cells) [%]	(cpm) (R1.1 cells)	effect on synthesis (DNA) in ConA-stimulated splenocytes, in words [2]	swelling (10^-2) [3]	% inhibition [3] [%]
C[C@@H](O)[C@@H]1NC(=O)[C@@H](NC(=O)[C@@H](N)Cc2ccccc2)CSSC[C@@H](C(=O)N[C@@H](Cc2ccc(O)cc2)C(=O)O)NC(=O)[C@H](CCCCN)NC(=O)[C@H](CO)NC(=O)[C@@H]2CCCN2C(=O)CNC(=O)[C@H](CCCCN)NC1=O [SEQ ID NO:3, F, C, T, K, G, P, S, K, C, Y] (H-FCTKGPSKCY-OH; disulfide 2-9)	45,000 cpm	–	–	–	–	–
CC(C)[C@@H]1NC(=O)[C@H](CCC(=O)O)NC(=O)[C@@H](NC(=O)[C@@H](N)Cc2ccccc2)CSSC[C@@H](C(=O)N[C@@H](Cc2ccc(O)cc2)C(=O)O)NC(=O)[C@H](CCC(=O)O)NC(=O)[C@H](CCCCN)NC(=O)[C@H](CCC(N)=O)NC(=O)[C@H](CC(=O)O)NC(=O)[C@H](CCC(=O)O)NC1=O [SEQ ID NO:8, F, C, E, V, E, D, Q, K, E, C, Y] (H-FCEVEDQKECY-OH; disulfide 2-10)	20,000 cpm	–	–	–	–	–
CC[C@H](C)[C@@H]1NC(=O)[C@@H](NC(=O)[C@H](CCCCN)NC(=O)[C@H](CC(N)=O)NC(=O)[C@@H](NC(=O)[C@H](CCCCN)NC(=O)[C@@H](N)Cc2ccccc2)[C@@H](C)O)CSSC[C@@H](C(=O)N[C@@H](CCC(N)=O)C(=O)N[C@@H](Cc2ccccc2)C(=O)O)NC(=O)[C@H]([C@@H](C)O)NC(=O)[C@H](CO)NC(=O)CNC(=O)[C@H](CO)NC(=O)[C@H](Cc2ccc(O)cc2)NC1=O [SEQ ID NO:10, F, K, T, N, K, C, I, Y, S, G, S, T, C, Q, F] (H-FKTNKCIYSGSTCQF-OH; disulfide 6-13)	–	75	6,250 cpm	in the same manner as treatment with MAb 87.92.6	15 10^-2	54
CC[C@H](C)[C@H](NC(=O)[C@H](CS)NC(=O)[C@H](CCCCN)NC(=O)[C@H](CC(N)=O)NC(=O)[C@@H](NC(=O)[C@H](CCCCN)NC(=O)[C@@H](N)Cc1ccccc1)[C@@H](C)O)C(=O)N[C@@H](Cc1ccc(O)cc1)C(=O)N[C@@H](CO)C(=O)NCC(=O)N[C@@H](CO)C(=O)N[C@H](C(=O)N[C@@H](CS)C(=O)N[C@@H](CCC(N)=O)C(=O)N[C@@H](Cc1ccccc1)C(=O)O)[C@@H](C)O [linear form of SEQ ID NO:10, reference compound] (H-FKTNKCIYSGSTCQF-OH)	–	4	24,000 cpm	–	27 10^-2	4
